Test results as given in article PMC1779304.
No constants are given. Whether binding was seen depends on the method and setting. Binding seen in cells or lysates may run through a third protein. Some binding calls cover weakened binding; strength is not graded here. Where a sequence is shown, tags or fusion partners need not be part of it.

Target: T1, Smc1-TAP (wild-type Smc1) (S. cerevisiae) (UniProt P32908)
T1 sequence: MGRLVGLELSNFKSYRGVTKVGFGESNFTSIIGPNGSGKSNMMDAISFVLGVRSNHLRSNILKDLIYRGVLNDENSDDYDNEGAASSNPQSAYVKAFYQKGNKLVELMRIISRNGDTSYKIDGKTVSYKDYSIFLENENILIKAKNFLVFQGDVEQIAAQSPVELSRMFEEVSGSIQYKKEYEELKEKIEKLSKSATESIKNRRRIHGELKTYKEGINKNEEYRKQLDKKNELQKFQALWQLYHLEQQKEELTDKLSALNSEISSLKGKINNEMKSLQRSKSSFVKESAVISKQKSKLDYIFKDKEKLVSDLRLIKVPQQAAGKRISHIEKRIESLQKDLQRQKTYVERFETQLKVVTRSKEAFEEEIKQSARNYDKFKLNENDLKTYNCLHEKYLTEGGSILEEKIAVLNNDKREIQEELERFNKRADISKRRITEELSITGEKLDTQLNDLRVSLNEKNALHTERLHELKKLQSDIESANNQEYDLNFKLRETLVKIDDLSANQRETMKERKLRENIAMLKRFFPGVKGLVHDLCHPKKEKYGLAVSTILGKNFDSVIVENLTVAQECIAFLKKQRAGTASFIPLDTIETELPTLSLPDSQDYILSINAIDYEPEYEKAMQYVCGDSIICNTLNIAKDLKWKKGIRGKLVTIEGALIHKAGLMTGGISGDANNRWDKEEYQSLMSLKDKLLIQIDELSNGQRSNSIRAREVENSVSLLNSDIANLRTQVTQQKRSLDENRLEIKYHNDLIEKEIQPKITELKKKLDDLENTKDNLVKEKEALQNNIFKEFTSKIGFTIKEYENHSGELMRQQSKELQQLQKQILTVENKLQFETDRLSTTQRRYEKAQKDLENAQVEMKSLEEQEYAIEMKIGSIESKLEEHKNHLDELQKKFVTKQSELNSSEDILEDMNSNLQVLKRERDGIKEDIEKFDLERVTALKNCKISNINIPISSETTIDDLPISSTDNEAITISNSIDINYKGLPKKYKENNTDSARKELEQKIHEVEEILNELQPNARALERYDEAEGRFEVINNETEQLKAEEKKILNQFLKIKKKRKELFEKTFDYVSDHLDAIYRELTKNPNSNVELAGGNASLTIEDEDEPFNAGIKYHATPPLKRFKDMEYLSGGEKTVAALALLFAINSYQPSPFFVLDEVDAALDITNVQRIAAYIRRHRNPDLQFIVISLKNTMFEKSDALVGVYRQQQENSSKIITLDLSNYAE
Assay: co-IP; Smc1-TAP proteins immunoprecipitated from yeast protein extracts (cells grown under repressing conditions, YEP-D, physiological levels of Smc1 proteins); SDS-PAGE, immunoblots for Smc1-TAP, Mcd1-6HA and Smc3-12MYC

B1: Smc3-12MYC (protein, UniProt P47037 1-1230)
chain: MYIKRVIIKGFKTYRNETIIDNFSPHQNVIIGSNGSGKSNFFAAIRFVLSDDYSNLKREERQGLIHQGSGGSVMSASVEIVFHDPDHSMILPSGVLSRGDDEVTIRRTVGLKKDDYQLNDRNVTKGDIVRMLETAGFSMNNPYNIVPQGKIVALTNAKDKERLQLLEDVVGAKSFEVKLKASLKKMEETEQKKIQINKEMGELNSKLSEMEQERKELEKYNELERNRKIYQFTLYDRELNEVINQMERLDGDYNNTVYSSEQYIQELDKREDMIDQVSKKLSSIEASLKIKNATDLQQAKLRESEISQKLTNVNVKIKDVQQQIESNEEQRNLDSATLKEIKSIIEQRKQKLSKILPRYQELTKEEAMYKLQLASLQQKQRDLILKKGEYARFKSKDERDTWIHSEIEELKSSIQNLNELESQLQMDRTSLRKQYSAIDEEIEELIDSINGPDTKGQLEDFDSELIHLKQKLSESLDTRKELWRKEQKLQTVLETLLSDVNQNQRNVNETMSRSLANGIINVKEITEKLKISPESVFGTLGELIKVNDKYKTCAEVIGGNSLFHIVVDTEETATLIMNELYRMKGGRVTFIPLNRLSLDSDVKFPSNTTTQIQFTPLIKKIKYEPRFEKAVKHVFGKTIVVKDLGQGLKLAKKHKLNAITLDGDRADKRGVLTGGYLDQHKRTRLESLKNLNESRSQHKKILEELDFVRNELNDIDTKIDQVNGNIRKVSNDRESVLTNIEVYRTSLNTKKNEKLILEESLNAIILKLEKLNTNRTFAQEKLNTFENDLLQEFDSELSKEEKERLESLTKEISAAHNKLNITSDALEGITTTIDSLNAELESKLIPQENDLESKMSEVGDAFIFGLQDELKELQLEKESVEKQHENAVLELGTVQREIESLIAEETNNKKLLEKANNQQRLLLKKLDNFQKSVEKTMIKKTTLVTRREELQQRIREIGLLPEDALVNDFSDITSDQLLQRLNDMNTEISGLKNVNKRAFENFKKFNERRKDLAERASELDESKDSIQDLIVKLKQQKVNAVDSTFQKVSENFEAVFERLVPRGTAKLIIHRKNDNANDHDESIDVDMDAESNESQNGKDSEIMYTGVSISVSFNSKQNEQLHVEQLSGGQKTVCAIALILAIQMVDPASFYLFDEIDAALDKQYRTAVATLLKELSKNAQFICTTFRTDMLQVADKFFRVKYENKISTVIEVNREEAIGFIRGSNKFAEV
binding: binds
